Earlier results, collected in patent US20030013692A1, “Methods of treating neurological disorders” (priority 2001, published 2003).
Counter-ions that a name gives are not always drawn. At least one compound was matched to its structure with a doubt left.

Test system: beta-adrenoreceptor

## CC(C)NCC(O)c1ccc(NS(C)(=O)=O)cc1 (racemic) [sotalol, 1-N-[4-[1-hydroxy-2-[(methylethyl)amino]ethyl]phenyl]methane-sulfonamide monohydrochloride]
Class III (cardiac action potential duration prolongation) effects, daily doses
  daily dose at which Class III effects are seen: ≥ 160 mg
non-cardioselective beta-blocking effect
  dose at which beta-blocking effect is half maximal: about 80 mg/day
